{"source": "the supplement of paper PMC4749390", "note": "Counter-ions that a name gives are not always drawn. The list shows a part of the results. This data set is noisy: repeats of one test often differ as much as different tests do.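 JEG3 cells stably express tetracycline-inducible wild-type human LRH-1, a highly sumoylated nuclear receptor. SUMO-sensitive transcripts APOC3 and MUC1, increased by SUMO-deficient LRH-1 or UBC9 knockdown, were quantified by RT-qPCR relative to TBP and DMSO controls. Primary hits had robust Z-scores above +2 or below -2, before toxicity and TBP filtering.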", "data": [{"test_system": "JEG3 expressing hLRH-1", "experiment": "MUC1 transcript change (ddCt vs TBP and DMSO), Z-score over library; higher = higher MUC1 expression", "conditions": "10 µM; time (hr): 24", "values": [{"compound": "OC(c1cc(C(F)(F)F)nc2c(C(F)(F)F)cccc12)C1CCCCN1", "note": "(stereo unspecified) [mefloquine]", "MUC1 transcript change (Z-score)": -0.148}, {"compound": "CSCC[C@H](NC(=O)[C@H](Cc1c[nH]c2ccccc12)NC(=O)[C@H](C)NC(=O)OC(C)(C)C)C(=O)N[C@@H](CC(=O)O)C(=O)N[C@@H](Cc1ccccc1)C(N)=O", "note": "[pentagastrin]", "MUC1 transcript change (Z-score)": 0.231}, {"compound": "CC(C)(C)NC[C@H](O)COc1nsnc1N1CCOCC1", "note": "[timolol maleate]", "MUC1 transcript change (Z-score)": 0.34}, {"compound": "C[C@]12CCC(=O)C=C1CC[C@@H]1[C@@H]2[C@@H](O)C[C@@]2(C)[C@H]1CC[C@]2(O)C(=O)COC(=O)CCC(=O)O", "note": "[hydrocortisone hemisuccinate]", "MUC1 transcript change (Z-score)": -0.169}, {"compound": "CN1C(CC(=O)c2ccccc2)CCCC1CC(O)c1ccccc1", "note": "(stereo unspecified) [lobeline hydrochloride]", "MUC1 transcript change (Z-score)": 0.239}, {"compound": "CC(C)[C@H](N)C(=O)OCCOCn1cnc2c(O)nc(N)nc21", "note": "[valacyclovir hydrochloride]", "MUC1 transcript change (Z-score)": 0.565}, {"compound": "CCOC(=O)OC(C)OC(=O)[C@@H]1N2C(=O)[C@@H](NC(=O)[C@H](N)c3ccccc3)[C@H]2SC1(C)C", "note": "(stereo partly specified) [bacampicillin hydrochloride]", "MUC1 transcript change (Z-score)": 0.0913}, {"compound": "CC(=O)N[C@@H](CCC(N)=O)C(=O)O", "note": "[aceglutamide]", "MUC1 transcript change (Z-score)": -0.245}, {"compound": "CCC(C)[C@H]1O[C@]2(CC[C@@H]1C)C[C@@H]1C[C@@H](C/C=C(\\C)[C@@H](OC3C[C@H](OC)C(O[C@H]4C[C@H](OC)[C@@H](O)[C@H](C)O4)[C@H](C)O3)[C@@H](C)/C=C/C=C3\\CO[C@@H]4[C@H](O)C(C)=C[C@@H](C(=O)O1)[C@]34O)O2", "note": "(stereo partly specified) [ivermectin]", "MUC1 transcript change (Z-score)": 0.413}, {"compound": "Nc1ncn([C@@H]2O[C@H](CO)[C@@H](O)[C@H]2O)c(=O)n1", "note": "[5-azacytidine]", "MUC1 transcript change (Z-score)": -1.75}, {"compound": "CC1CCc2c(N3CCC(O)CC3)c(F)cc3c(=O)c(C(=O)O)cn1c23", "note": "(stereo unspecified) [nadifloxacin]", "MUC1 transcript change (Z-score)": -0.145}, {"compound": "O=C(O)CCCCC(=O)O", "note": "[adipic acid]", "MUC1 transcript change (Z-score)": 0.643}, {"compound": "CCCNC(C)C(=O)Nc1ccccc1C", "note": "(stereo unspecified) [prilocaine hydrochloride]", "MUC1 transcript change (Z-score)": 0.913}, {"compound": "COc1ccc(CN(CCN(C)C)c2ccccn2)cc1", "note": "[Pyrilamine maleate]", "MUC1 transcript change (Z-score)": 0.0631}, {"compound": "Cc1c(C)c2c(c(C)c1O)CCC(C)(CCCC(C)CCCC(C)CCCC(C)C)O2", "note": "(stereo not drawn) [alpha-tochopherol]", "MUC1 transcript change (Z-score)": 0.249}, {"compound": "CN1C(C(=O)Nc2ccccn2)=C(O)c2sc(Cl)cc2S1(=O)=O", "note": "[lornoxicam]", "MUC1 transcript change (Z-score)": 0.456}, {"compound": "C=CCc1ccc(O)c(OC)c1", "note": "[eugenol]", "MUC1 transcript change (Z-score)": 0.349}, {"compound": "CCN1C(=O)NC(c2ccccc2)C1=O", "note": "(stereo unspecified) [ethotoin]", "MUC1 transcript change (Z-score)": 0.271}, {"compound": "CNCCC=C1c2ccccc2CCc2ccccc21", "note": "[Nortriptyline hydrochloride]", "MUC1 transcript change (Z-score)": 0.637}, {"compound": "CCn1cc(C(=O)O)c(=O)c2ccc(C)nc21", "note": "[nalidixic acid]", "MUC1 transcript change (Z-score)": 0.576}, {"compound": "CCCCCCCCCCCCCCCC[N+](C)(C)CCN(Cc1ccc(OC)cc1)c1ncccn1", "note": "[thonzonium bromide]", "MUC1 transcript change (Z-score)": 0.0367}]}]}
